According to the supplement of paper PMC6690932:
“And” between values parts separate entries of the source, which are not always exact repeats. Equal values may be shown once. Where a name gives a salt, the structure may show the parent alone. ± gives the standard deviation of the averaged measurements. Some of the results follow. Repeats are few or missing, and single values can be far off.

Tested on: HeLa
Test: lysosomal-METRIQ red/green fluorescence ratio relative to DMSO (ratio to DMSO); higher = higher lysosomal activity / lysosomal biogenesis
Conditions: 10 µM; 12 h

| SMILES | lysosomal-METRIQ red/green fluorescence ratio |
| --- | --- |
| N=C(N)NC(=O)c1nc(Cl)c(N)nc1N [Amiloride] | 1 |
| N#C/C(=C\c1ccc(O)c(O)c1)C(=O)NCc1ccccc1 | 1.06 ± 0.015 |
| O=C(Cc1ccccc1)Nc1c2c(nc3ccccc13)N(Cc1ccccc1)CC2 | 1.04 |
| Cn1nnc2c(C(N)=O)ncn2c1=O [temozolomide] | 0.818 |
| Cc1ccc2nc(NCCN)c3ncc(C)n3c2c1 | 1.75 |
| Cc1nc2c(O)cccc2c(=O)[nH]1 | 1.07 |
| COC(=O)CNC(=O)C(=O)OC [Dimethyloxalylglycine] | 1.17 |
| CCCCCCCCCCC1=C(C)C(=O)C(OC)=C(OC)C1=O [Decylubiquinone] | 0.957 |
| CCCCC[C@H](CC(=O)NO)C(=O)N[C@H](C(=O)N1CCC[C@H]1CO)C(C)C [Actinonin] | 1 |
| Clc1ccccc1CNCC1CCC(CNCc2ccccc2Cl)CC1 (stereo unspecified) | 0.682 |
| COc1cc2c(NC3CCN(C(C)C)CC3)nc(C3CCCCC3)nc2cc1OCCCN1CCCC1 | 0.455 |
| CC[n+]1c(/C=C/N(C)c2ccccc2)n(-c2ccccc2)c2ccc(-c3nc4ccccc4s3)cc21 [Akt Inhibitor IV] | 0.318 |
| CN(C)CCCN1c2ccccc2Sc2ccc(Cl)cc21 [chlorpromazine hydrochloride] | 0.727 |
| O=C1Nc2ccc(I)cc2/C1=C\c1cc(Br)c(O)c(Br)c1 [RAF1 kinase inhibitor I] | 1.06 |
| CO[C@H]1C[C@@H]2CC[C@@H](C)[C@@](O)(O2)C(=O)C(=O)N2CCCC[C@H]2C(=O)O[C@H]([C@H](C)C[C@@H]2CC[C@@H](OC(=O)C(C)(CO)CO)[C@H](OC)C2)CC(=O)[C@H](C)/C=C(\C)[C@@H](O)[C@@H](OC)C(=O)[C@H](C)C[C@H](C)/C=C/C=C/C=C/1C [temsirolimus] | 1.14 |
| COc1cc2c(cc1OC)-c1[nH]nc(Nc3cccc(F)c3)c1C2 [PDGF receptor tyrosine kinase inhibitor IV] | 1.12 |
| C[C@@H](Oc1cc(-c2cnn(C3CCNCC3)c2)cnc1N)c1c(Cl)ccc(F)c1Cl [crizotinib] | 1 |
| O=c1cc(N2CCOCC2)oc2c(-c3ccccc3)cccc12 | 0.875 and 1 |

3 neighbouring compounds out of the list so far:

| SMILES | lysosomal-METRIQ red/green fluorescence ratio |
| --- | --- |
| Cn1nnc2c(C(N)=O)ncn2c1=O [temozolomide] | 0.818 |
| Cc1ccc2nc(NCCN)c3ncc(C)n3c2c1 | 1.75 |
| Cc1nc2c(O)cccc2c(=O)[nH]1 | 1.07 |

Additional compounds follow.

| SMILES | lysosomal-METRIQ red/green fluorescence ratio |
| --- | --- |
| CCCCC(=O)Oc1ccccc1C(=O)O [Valeryl salicylate] | 1 |
| CNC(=O)c1cc(Oc2ccc(NC(=O)Nc3ccc(Cl)c(C(F)(F)F)c3)cc2)ccn1 [sorafenib] | 1.27 |
| O=C(Nc1cccc2cccnc12)c1ccc(N2C(=O)[C@@H]3[C@H](C2=O)[C@@H]2C=C[C@H]3C2)cc1 [IWR-1-endo] | 0.818 |
| Nc1cccc2c1CN(C1CCC(=O)NC1=O)C2=O (stereo unspecified) [lenalidomide] | 0.818 |
| CC(C)c1cc(/C=C(\C#N)C(=O)NCCCc2ccccc2)cc(C(C)C)c1O | 1.12 ± 0.097 |
| CCCCCCCCCCC[C@@H](C[C@@H]1OC(=O)[C@H]1CCCCCC)OC(=O)[C@H](CC(C)C)NC=O [orlistat] | 0.955 |
| CC/C(=C(\c1ccccc1)c1ccc(OCCN(C)C)cc1)c1ccccc1 [Tamoxifen, citrate] | 1 |
| Cc1ccc(NC(=O)c2cccc(N(C)C)c2)cc1NC(=O)c1ccc(O)cc1 | 1.19 |
| O=[N+]([O-])c1ccc(-c2nc(-c3ccc(F)cc3)c(-c3ccncc3)[nH]2)cc1 | 1.2 |
| CC(C)CC(=O)N[C@H](C(=O)N[C@H](C(=O)N[C@@H](CC(C)C)[C@@H](O)CC(=O)N[C@@H](C)C(=O)N[C@@H](CC(C)C)[C@@H](O)CC(=O)O)C(C)C)C(C)C [Pepstatin A] | 1 |
| CCCCCCCCCCCCCCOc1ccc(C(=O)O)o1 | 1.08 |
| C[C@]1(c2nc3c(C(N)=O)cccc3[nH]2)CCCN1 [ABT-888 (Veliparib)] | 1 |
| COc1nccc(-c2c(-c3ccc(F)cc3)ncn2C2CCC(O)CC2)n1 (stereo unspecified) | 1 |
| COc1cc2nc(N3CCCN(C)CC3)nc(NC3CCN(Cc4ccccc4)CC3)c2cc1OC | 0.636 |
| CC1=C(/C=C/C(C)=C/C=C/C(C)=C/C(=O)O)C(C)(C)CCC1 [tretinoin] | 0.818 |
| Nc1ncn([C@H]2C[C@H](O)[C@@H](CO)O2)c(=O)n1 [Decitabine] | 0.864 |
| CCN(CC)CCNC(=O)c1c(C)[nH]c(/C=C2\C(=O)Nc3ccc(Cl)cc32)c1C | 3.12 |
| CN(C)S(=O)(=O)c1ccc2c(c1)/C(=C/c1cc3c([nH]1)CCCC3)C(=O)N2 | 2.5 |
